Laboratory results: EP1410040B1
These are yes or no findings as the source states them, for the method shown. Binding seen in cells or lysates may run through a third protein. Some binding calls cover weakened binding; strength is not graded here.

Chains of the proteins cited; added tags and fusions are not shown. Residues count along the entry.
NCoA-1 N-terminal fragment spanning amino acids 1 to 781 (P70365, residues 1-781): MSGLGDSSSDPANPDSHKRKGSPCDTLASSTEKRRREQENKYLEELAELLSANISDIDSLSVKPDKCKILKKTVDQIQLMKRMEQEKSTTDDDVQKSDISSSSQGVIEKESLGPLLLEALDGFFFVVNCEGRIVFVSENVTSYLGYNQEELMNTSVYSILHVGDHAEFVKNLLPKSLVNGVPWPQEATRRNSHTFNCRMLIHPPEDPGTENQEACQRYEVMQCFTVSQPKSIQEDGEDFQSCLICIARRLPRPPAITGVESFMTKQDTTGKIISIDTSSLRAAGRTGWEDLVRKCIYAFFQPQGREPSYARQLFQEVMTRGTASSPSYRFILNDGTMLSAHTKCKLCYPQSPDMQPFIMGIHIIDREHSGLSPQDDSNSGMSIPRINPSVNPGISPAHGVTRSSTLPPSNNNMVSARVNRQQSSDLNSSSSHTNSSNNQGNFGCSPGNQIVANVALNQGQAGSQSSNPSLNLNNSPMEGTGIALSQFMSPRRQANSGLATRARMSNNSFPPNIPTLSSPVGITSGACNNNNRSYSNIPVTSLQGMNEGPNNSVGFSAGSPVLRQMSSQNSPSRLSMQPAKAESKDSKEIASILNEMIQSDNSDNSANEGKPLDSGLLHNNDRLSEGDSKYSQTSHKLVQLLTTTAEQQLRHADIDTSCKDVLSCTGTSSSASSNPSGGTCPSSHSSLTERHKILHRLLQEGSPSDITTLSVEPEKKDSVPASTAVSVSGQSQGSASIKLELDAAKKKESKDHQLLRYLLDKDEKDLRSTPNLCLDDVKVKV
NCoA-1 fragment (1-571) (P70365, residues 1-571): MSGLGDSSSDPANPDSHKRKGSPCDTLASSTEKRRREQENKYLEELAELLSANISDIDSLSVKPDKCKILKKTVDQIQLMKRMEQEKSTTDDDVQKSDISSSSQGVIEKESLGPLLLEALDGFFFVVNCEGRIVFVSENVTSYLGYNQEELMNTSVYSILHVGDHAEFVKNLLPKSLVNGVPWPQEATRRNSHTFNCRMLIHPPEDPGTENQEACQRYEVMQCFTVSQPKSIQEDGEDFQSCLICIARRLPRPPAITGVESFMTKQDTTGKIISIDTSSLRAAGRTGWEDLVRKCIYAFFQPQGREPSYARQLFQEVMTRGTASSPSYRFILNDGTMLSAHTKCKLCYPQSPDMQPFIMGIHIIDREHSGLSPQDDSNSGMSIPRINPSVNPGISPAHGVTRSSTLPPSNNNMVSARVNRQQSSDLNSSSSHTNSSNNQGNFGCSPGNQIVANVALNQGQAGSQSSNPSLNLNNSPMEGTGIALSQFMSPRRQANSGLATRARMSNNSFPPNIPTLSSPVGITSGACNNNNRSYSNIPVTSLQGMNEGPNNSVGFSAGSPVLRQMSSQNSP

Biological target: GST-STAT6 aa 677-847 protein (human)
Test: GST pull-down, 35S-labeled in vitro translated NCoA-1 fragments

binding, binds:
NCoA-1 fragment (1-571) (from UniProt P70365 1-571), NCoA-1 fragment comprising residues 213 to 462 (from UniProt P70365 212-463), NCoA-1 N-terminal fragment spanning amino acids 1 to 781 (from UniProt P70365 1-781)
